The term AC50 denotes the concentration giving half of the maximal activity seen.

Data on 52 compounds can be found in PubChem BioAssay AID1487 (National Center for Advancing Translational Sciences (NCATS), 2009).

The nature of the test: qHTS Assay for Modulators of Lamin A Splicing. As to conditions: HeLa LMNA splicing GFP/RFP minigene ratio, 48 h. Put shortly: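 S3 HeLa cells stably expressing lamin A-EGFP splicing minigene plus DsRed2, 600 cells/well, 48 h compound exposure at 37C. Laser-scanning cytometry; analysed as GFP (500-530 nm)/RFP (575-640 nm) total intensity ratio; 0.5% DMSO vehicle.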
Background: Quantitative high-throughput screening tests each substance at several concentrations.

Where [1] appears, read: measured here: GFP splicing reporter channel.
Setting [2] is: measured here: RFP viability control channel.

The other results are listed elsewhere or left out. These are further read-outs of the screen, such as a control signal, another cell line or another target. No call is given for them. The list favours compounds with an active or inconclusive main result. Potencies come from curve fits of mixed quality, noted in brackets.

Turning to `CCNc1nc(NCC)nc(NC(N)=S)n1`, under setting [1], the half-maximal activity concentration (AC50) was 0.0112 µM [falling, full curve, poor fit].
For the compound `Cn1c(Oc2ccccc2NCc2cc(Br)ccc2O)cc(=O)n(C)c1=O`, under setting [2], the AC50 was 35.5 µM [rising, single point].
Regarding `O=S(=O)(NCCSc1nnc(-c2ccco2)n1-c1ccccc1)c1ccccc1`, the AC50 under setting [1] was 31.6 µM [rising, single point] and the AC50 under setting [2] is 31.6 µM [rising, single point].
With `Cn1c(C(=O)Nc2ccc3c(c2)OCCO3)cc2c(=O)n(C)c3ccccc3c21`, the AC50 under setting [2] was 8.91 µM [rising, partial curve].
The same measure, in the same setting: the figure for `O=C1CCc2cc(S(=O)(=O)N3CCN(c4ccccc4F)CC3)ccc2N1` is 15.8 µM [rising, single point].
Take `COc1ccc(OC)c(NC2=C(Cl)C(=O)N(Cc3ccccc3)C2=O)c1`: the AC50 was 3.55 µM [rising, single point] under setting [1] and 11.2 µM [falling, partial curve, poor fit] under setting [2].
As for `O=C(CSc1nccn1-c1ccccc1)NCc1ccc(F)cc1`, the AC50 runs as follows: under setting [1], 1.26 µM [falling, full curve]; under setting [2], 0.501 µM [falling, full curve, poor fit].
In the case of `COc1ccc(NC(=O)ON=C2c3ccccc3-c3ccccc32)cc1`, the AC50 under setting [1] is 11.2 µM [rising, partial curve, poor fit].
As for `CC(=O)N(c1ccccc1)C(C)c1nc(C#N)c(C#N)nc1C` (configuration not stated), the AC50 runs as follows: under setting [1], 11.2 µM [rising, partial curve, poor fit]; under setting [2], 11.2 µM [rising, partial curve, poor fit].
As to `Cn1c(SCc2nc3ccccc3c(=O)[nH]2)nc2ccccc21`, the AC50 under setting [1] was 0.0794 µM [falling, partial curve, poor fit] and the AC50 under setting [2] was 0.251 µM [falling, partial curve].
`CN1CCN(c2nc(Nc3ccc(O)cc3)nc3ccccc23)CC1`: the AC50 is, setting by setting: under setting [1], 3.16 µM [falling, single point]; under setting [2], 6.31 µM [falling, single point].
Regarding `COc1cccc(C2=NOC(C(=O)Nc3cccnc3Cl)C2)c1` (configuration not stated), the AC50 was 5.01 µM [rising, partial curve, poor fit] under setting [1] and 3.16 µM [rising, partial curve] under setting [2].
As for `Cc1ccc(CNC(=O)CSc2nc3c(sc4ccccc43)c(=O)n2CCCN2CCCC2)cc1`, the AC50 reads like this: under setting [1], 0.355 µM [rising, partial curve, poor fit]; under setting [2], 31.6 µM [rising, single point].
Turning to `C=C(C)COc1ccc(-c2nc(N)nc(C)c2Oc2ccccc2OC)c(O)c1`, the AC50 runs as follows: under setting [1], 11.2 µM [rising, partial curve, poor fit]; under setting [2], 25.1 µM [rising, single point].
For `CCCCCCCC(=O)O`, the AC50 is, setting by setting: under setting [1], 0.000891 µM [falling, full curve, poor fit]; under setting [2], 0.000891 µM [falling, full curve, poor fit].
In the case of `CC[C@H](NC(C)C)[C@H](O)c1ccc(O)c2[nH]c(=O)ccc12`, the AC50 by setting is: under setting [1], 11.2 µM [falling, single point]; under setting [2], 0.891 µM [falling, single point].
Regarding `O=C1C(=O)N(CCN2CCOCC2)C(c2ccccn2)/C1=C(/O)c1ccc(F)cc1` (configuration not stated), the AC50 under setting [2] was 15.8 µM [rising, single point].
The same measure, in the same setting: the value for `O=C(COc1ncnc2cc([N+](=O)[O-])ccc12)N(CCc1ccccc1)Cc1ccccc1` was 35.5 µM [rising, single point].
Regarding `O=C(Cc1ccc2c(c1)OCCO2)N1CCN(S(=O)(=O)c2cccc(Cl)c2Cl)CC1`, the AC50 under setting [1] was 11.2 µM [rising, partial curve, poor fit] and the AC50 under setting [2] was 14.1 µM [rising, partial curve].
Take `Cc1cc(C(=O)CC#N)c(C)n1-c1c(C)n(C)n(-c2ccccc2)c1=O`: the AC50 under setting [2] is 0.00447 µM [falling, full curve, poor fit].
Take `O=c1oc(-c2cccs2)nc2sc3c(c12)CCCC3`: the AC50 under setting [1] is 35.5 µM [rising, single point].
For the compound `COC(=O)c1sc(NC(=O)c2cccc([N+](=O)[O-])c2)c(C(N)=O)c1C`, under setting [2], the AC50 is 5.62 µM [rising, single point].
On to `CC(=O)c1c(C)[nH]c(C(=O)OCC(=O)Nc2ccc(Cl)cc2[N+](=O)[O-])c1C`, for which the AC50 reads like this: under setting [1], 2.82 µM [rising, full curve]; under setting [2], 3.55 µM [rising, full curve].
As to `COC(=O)c1ccccc1NC(=O)c1c(O)c2cccc3c2n(c1=O)CCC3`, the AC50 under setting [2] is 5.62 µM [rising, single point].
Take `CCOC(=O)c1cn(Cc2c(C)c(C)c(C)c(C)c2C)nn1`: the AC50 under setting [1] is 0.447 µM [rising, full curve, poor fit].
On to `CCOC(=O)c1ccc(NS(=O)(=O)c2ccc(SC)cc2)cc1`, for which the AC50 under setting [2] was 10 µM [rising, partial curve].
For `CCCCOC(=O)c1nc[nH]c1C(=O)OCCCC`, the AC50 was 28.2 µM [falling, single point] under setting [1] and 15.8 µM [falling, single point] under setting [2].
Turning to `CCN1/C(=C/c2ccc3ccccc3[n+]2CC)C=Cc2ccccc21`, the AC50 under setting [2] is 5.62 µM [rising, partial curve, poor fit].
Turning to `CC(C)CC(=O)N[C@H](C(=O)N[C@H](C(=O)N[C@@H](CC(C)C)[C@H](O)CC(=O)N[C@@H](C)C(=O)N[C@@H](CC(C)C)[C@H](O)CC(=O)O)C(C)C)C(C)C`, the AC50 is 2 µM [falling, single point] under setting [1] and 0.0891 µM [falling, partial curve] under setting [2].
`O=C(Nc1ccc(Cc2ccc(NC(=O)C3CC3)cc2)cc1)C1CC1`: the AC50 under setting [2] is 2 µM [falling, partial curve, poor fit].
With `Cc1nc2cnc(N(C)C)nc2n(CCc2ccccc2)c1=O`, under setting [1], the AC50 was 12.6 µM [falling, partial curve].
Consider `CCc1cc2c(COC(=O)c3c(C)noc3C)cc(=O)oc2cc1O`, for which the AC50 is 5.62 µM [rising, partial curve] under setting [1] and 35.5 µM [falling, single point] under setting [2].
Turning to `CCOC(=O)Cc1csc(N/N=C/c2ccccc2)n1`, the AC50 under setting [2] is 15.8 µM [rising, single point].
For the compound `CCOC(=O)C1=C(O)/C(=C\c2ccc(CNC(=O)C(=O)Nc3ccccc3)o2)N=C1C`, the AC50 was 5.62 µM [falling, partial curve] under setting [1] and 4.47 µM [falling, partial curve] under setting [2].
On to `Cc1cccc(-n2c(=S)[nH]c3c(oc4ccccc43)c2=O)c1`, for which the AC50 under setting [2] was 0.891 µM [rising, partial curve, poor fit].
For the compound `CCC(C)Nc1oc(-c2ccc(COc3ccc(Cl)cc3)o2)nc1C#N` (configuration not stated), the half-maximal activity concentration (AC50) under setting [1] was 4.47 µM [rising, partial curve].
In the case of `O=[N+]([O-])c1ccc(CSc2nnc(SCc3ccc(Cl)cc3)s2)cc1`, the AC50 under setting [2] is 12.6 µM [rising, single point].
`CCNc1cc(S(=O)(=O)C(F)(F)F)ccc1N`: the AC50 under setting [1] was 11.2 µM [rising, partial curve] and the AC50 under setting [2] was 22.4 µM [rising, partial curve].
With `COc1ccc(CCNC(=O)c2cc(C(=O)c3cc(C)ccc3O)cn(CCc3ccc(OC)cc3)c2=O)cc1`, under setting [2], the AC50 is 3.55 µM [rising, full curve, poor fit].
For the compound `Cc1cccc(OCC(O)Cn2c(=N)n(CCN3CCCCC3)c3ccccc32)c1` (configuration not stated), the AC50 is 25.1 µM [rising, single point] under setting [1] and 31.6 µM [rising, single point] under setting [2].
Consider `CCc1ccc(-c2cc(C(=O)NCc3ccccn3)c3ccccc3n2)cc1`, for which, under setting [2], the AC50 is 20 µM [rising, single point].
As to `N#Cc1nc(-c2cccs2)oc1N1CCN(c2ccccc2)CC1`, under setting [2], the AC50 was 10 µM [rising, partial curve, poor fit].
Same read-out and setting: the value for `Cc1c(C(=O)Nc2ccncc2)oc2c1C(=O)CC(C)(C)C2` was 14.1 µM [rising, single point]; that for `Cc1oc(-c2cccs2)nc1CS(=O)CC(=O)NC1CCCCCC1` (configuration not stated) was 6.31 µM [rising, partial curve].
As to `COC(=O)c1cc(NC(=O)CN(c2ccc3c(c2)OCO3)S(C)(=O)=O)ccc1Cl`, the AC50 reads like this: under setting [1], 14.1 µM [rising, single point]; under setting [2], 17.8 µM [rising, single point].
For `O=[N+]([O-])c1cccnc1N1CCC(c2cc(-c3cccc(C(F)(F)F)c3)n[nH]2)CC1`, the AC50 under setting [2] was 25.1 µM [rising, single point].
For the compound `COc1ccccc1CNC(=O)C1CCN(S(=O)(=O)c2ccc3c(ccn3C)c2)CC1`, the AC50 under setting [1] was 0.126 µM [rising, full curve, poor fit] and the AC50 under setting [2] is 7.08 µM [rising, full curve, poor fit].
For `CCOc1ccccc1NC(=O)C1CCCCN1S(=O)(=O)c1ccc(F)cc1` (configuration not stated), under setting [2], the AC50 is 20 µM [rising, single point].
Consider `Cc1ccc(S(=O)(=O)NC(=O)NN2C[C@H]3CCC[C@@H]3C2)cc1`, for which the AC50 was 14.1 µM [falling, single point] under setting [1] and 0.141 µM [falling, partial curve, poor fit] under setting [2].
`CC(=O)c1ccc(Cc2ccccc2)cc1`: the AC50 reads like this: under setting [1], 0.02 µM [rising, full curve, poor fit]; under setting [2], 0.02 µM [rising, full curve, poor fit].
As for `O=S(=O)(NCC1CCCO1)c1ccc2ccccc2c1` (configuration not stated), the AC50 by setting is: under setting [1], 0.794 µM [rising, full curve]; under setting [2], 0.794 µM [rising, full curve].
For the compound `Cc1ccc(Nc2nc(CSc3nnc(-c4ccc(F)cc4)n3C)cs2)cc1`, the AC50 was 5.62 µM [rising, full curve, poor fit] under setting [1] and 14.1 µM [rising, partial curve] under setting [2].
